Test results as given in patent publication US20100210819A1, “Biosensors to measure InsP3 concentration in living cells” (priority 2006, published 2010).

Tests used:
[1] = test system: adult cat ventricular myocytes; experiment: Acceptor (YFP) photobleach in adult cat ventricular myocytes expressing FIRE-1; format: cell-based
COS-1 cells = experiment: Acceptor (YFP) photobleach in COS-1 cells expressing FIRE-1 and FIRE-3; format: cell-based

## FIRE-1: FRET biosensor: type-1 InsP3R ligand binding domain (589 residues) fused amino-terminally with CFP and carboxyl-terminally with YFP
[1]; cell dialyzed with 10 μM InsP3, 41% bleach of YFP
  increase of CFP fluorescence after YFP photobleach, example cell: 13%
[1]; high [InsP3]i, cells internally perfused with 10 μM InsP3
  mean increase of CFP fluorescence after YFP photobleach: 11.8±1.2%
[1]; intact adult myocyte, YFP photobleach by 47%
  increased CFP fluorescence after YFP photobleach, example cell: 8%
[1]; intact adult myocytes
  mean increase of CFP fluorescence after YFP photobleach: 5.4±1.0%
COS-1 cells; COS-1 cells, before [InsP3] increases
  basal extent of FRET, corrected for incomplete YFP photobleach: about 22.6±2.1%
COS-1 cells; COS-1 cells, n=8, mean YFP photobleach 58.2% (FIRE-1), 54.9% (FIRE-3)
  mean increased CFP fluorescence after YFP photobleach: 8.9±1.3%
COS-1 cells; a COS-1 cell, 58% decrease in YFP fluorescence
  increase of CFP donor fluorescence after partial YFP photobleach, single cell: 12%
